For one test, the target named is T1, GST-ZPR3 (UniProt Q9LXI8).
T1 sequence: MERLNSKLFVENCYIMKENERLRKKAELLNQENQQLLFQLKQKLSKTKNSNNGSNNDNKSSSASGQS
In words: pull-down; E. coli cell extracts of MBP-CO and HIS-TPL mixed with GST-miP1a, GST-miP1aΔPFVFL or GST-ZPR3; GST fusions held on anti-GST magnetic beads; HIS-TPL and MBP-CO detected by immunoblotting. On the technique in general: A western blot detects proteins with antibodies after separation by electrophoresis.

The chains behind the UniProt entries cited, without tags or fusion partners.
UniProt Q39057: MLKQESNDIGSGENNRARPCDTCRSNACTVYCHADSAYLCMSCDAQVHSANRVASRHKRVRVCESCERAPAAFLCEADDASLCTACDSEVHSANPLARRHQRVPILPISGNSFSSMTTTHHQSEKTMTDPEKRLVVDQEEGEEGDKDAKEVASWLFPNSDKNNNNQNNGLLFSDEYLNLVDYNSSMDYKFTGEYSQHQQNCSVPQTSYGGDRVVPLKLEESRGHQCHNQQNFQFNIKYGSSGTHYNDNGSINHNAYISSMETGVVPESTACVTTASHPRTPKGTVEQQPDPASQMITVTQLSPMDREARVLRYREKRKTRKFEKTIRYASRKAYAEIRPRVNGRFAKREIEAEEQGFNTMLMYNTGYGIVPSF

For test [1], the target named is MBP-CO (Arabidopsis thaliana) (UniProt Q39057). The test is described as follows: pull-down; soluble protein fractions of E. coli BL21 lysates mixed; MBP-CO held on amylose-coated magnetic beads; GST fusions detected by immunoblotting.

The results in this text go back to article PMC4807768.

These are yes or no findings as the source states them, for the method shown. Binding seen in cells or lysates may run through a third protein. Where a sequence is shown, tags or fusion partners need not be part of it.

In the case of MBP-CO (from UniProt Q39057 1-373), in the test with GST-ZPR3, the binding entry is recorded as “no binding”.

B1: HIS-TPL (protein, UniProt Q94AI7 1-1131)
chain: MSSLSRELVFLILQFLDEEKFKETVHKLEQESGFFFNMKYFEDEVHNGNWDEVEKYLSGFTKVDDNRYSMKIFFEIRKQKYLEALDKHDRPKAVDILVKDLKVFSTFNEELFKEITQLLTLENFRENEQLSKYGDTKSARAIMLVELKKLIEANPLFRDKLQFPTLRNSRLRTLINQSLNWQHQLCKNPRPNPDIKTLFVDHSCGPPNGARAPSPVNNPLLGGIPKAGGFPPLGAHGPFQPTASPVPTPLAGWMSSPSSVPHPAVSAGAIALGGPSIPAALKHPRTPPTNASLDYPSADSEHVSKRTRPMGISDEVNLGVNMLPMSFSGQAHGHSPAFKAPDDLPKTVARTLSQGSSPMSMDFHPIKQTLLLVGTNVGDIGLWEVGSRERLVQKTFKVWDLSKCSMPLQAALVKEPVVSVNRVIWSPDGSLFGVAYSRHIVQLYSYHGGEDMRQHLEIDAHVGGVNDISFSTPNKQLCVITCGDDKTIKVWDAATGVKRHTFEGHEAPVYSVCPHYKENIQFIFSTALDGKIKAWLYDNMGSRVDYDAPGRWCTTMAYSADGTRLFSCGTSKDGESFIVEWNESEGAVKRTYQGFHKRSLGVVQFDTTKNRYLAAGDDFSIKFWDMDAVQLLTAIDGDGGLQASPRIRFNKEGSLLAVSGNENVIKIMANSDGLRLLHTFENISSESSKPAINSIAAAAAAAATSAGHADRSANVVSIQGMNGDSRNMVDVKPVITEESNDKSKIWKLTEVSEPSQCRSLRLPENLRVAKISRLIFTNSGNAILALASNAIHLLWKWQRNERNATGKATASLPPQQWQPASGILMTNDVAETNPEEAVPCFALSKNDSYVMSASGGKISLFNMMTFKTMATFMPPPPAATFLAFHPQDNNIIAIGMDDSTIQIYNVRVDEVKSKLKGHSKRITGLAFSNVLNVLVSSGADAQLCVWNTDGWEKQRSKVLPLPQGRPNSAPSDTRVQFHQDQAHFLVVHETQLAIYETTKLECMKQWAVRESLAPITHATFSCDSQLVYASFMDATVCVFSSANLRLRCRVNPSAYLPASLSNSNVHPLVIAAHPQEPNMFAVGLSDGGVHIFEPLESEGKWGVAPPAENGSASGAPTAPSVGASASDQPQR
As for B1, the binding result with GST-ZPR3 is “no binding”.

B2: GST-ZPR3 (protein, UniProt Q9LXI8 1-67)
chain: MERLNSKLFVENCYIMKENERLRKKAELLNQENQQLLFQLKQKLSKTKNSNNGSNNDNKSSSASGQS
As for B2, the binding entry in test [1] is given as “no binding”.
